This test has as its target Flag-tagged STING truncation containing the ligand-binding domain (human). Nature of the test: co-IP; HEK293T cells co-transfected with both tagged plasmids for 24 h; Pierce IP Lysis Buffer; anti-Flag antibody or normal IgG overnight at 4°C, beads 6 h, six washes with cold PBS; immunoblot. (In general: A western blot detects proteins with antibodies after separation by electrophoresis.)

These are yes or no findings as the source states them, for the method shown. In cells and extracts the contact can be indirect. A result given as binding can be weak or reduced; the word gives no strength. Where a sequence is shown, tags or fusion partners need not be part of it.

B1: V5-AUP1 (ancient ubiquitous protein 1), full length, expressed in HEK293T cells (protein, UniProt Q9Y679 1-410)
chain: MELPSGPGPERLFDSHRLPGDCFLLLVLLLYAPVGFCLLVLRLFLGIHVFLVSCALPDSVLRRFVVRTMCAVLGLVARQEDSGLRDHSVRVLISNHVTPFDHNIVNLLTTCSTPLLNSPPSFVCWSRGFMEMNGRGELVESLKRFCASTRLPPTPLLLFPEEEATNGREGLLRFSSWPFSIQDVVQPLTLQVQRPLVSVTVSDASWVSELLWSLFVPFTVYQVRWLRPVHRQLGEANEEFALRVQQLVAKELGQTGTRLTPADKAEHMKRQRHPRLRPQSAQSSFPPSPGPSPDVQLATLAQRVKEVLPHVPLGVIQRDLAKTGCVDLTITNLLEGAVAFMPEDITKGTQSLPTASASKFPSSGPVTPQPTALTFAKSSWARQESLQERKQALYEYARRRFTERRAQEAD
In the case of B1, the binding entry is recorded as “binds weakly”.

The values above are taken from paper PMC12077101.
